# Test results from the supplement of paper PMC8728848.
# This is one part of the list.
# B1: SAOUHSC 02783 (Staphylococcus aureus), Q5HD69 (protein)
# chain: MIHSKKLTLGICLVLLIILIVGYVIMTKTNGRNAQIKDTFNQTLKLYPTKNLDDFYDKEGFRDQEFKKGDKGTWIVNSEMVIEPKGKDMETRGMVLYINRNTRTTKGYYFISEMTDDSNGRPKDDEKRYPVKMEHNKIIPTKPLPNDKLKKEIENFKFFVQYGNFKDINDYKDGDISYNPNVPSYSAKYQLNNDDYNVQQLRKRYDIPTKQAPKLLLKGDGDLKGSSVGSRSLEFTFVENKEENIYFTDSVQYTPSEDTRYESN
# How the values were obtained:
# Experiment in all cases: glycan array binding signal (z-score within array); higher = stronger binding
# Details in all cases: glycan notation: IUPAC condensed, linker removed
# [1] = target: Gal(b1-4)GlcNAc(b1-3)Gal(b1-4)GlcNAc(b1-3)Gal(b1-4)GlcNAc(b1-3)Gal(b1-4)GlcNAc(b1-2)Man(a1-3)[Gal(b1-4)GlcNAc(b1-3)Gal(b1-4)GlcNAc(b1-3)Gal(b1-4)GlcNAc(b1-3)Gal(b1-4)GlcNAc(b1-2)Man(a1-6)]Man(b1-4)GlcNAc(b1-4)[Fuc(a1-6)]GlcNAc
# How it was run: (§1)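 Columns mapping to the same glycan were averaged after glycan names were converted to IUPAC-condensed notation. The data come from 3228 arrays in the Consortium for Functional Glycomics database, limited to those with an available protein sequence. Binding is reported as a within-array Z-score averaged across arrays of one protein sequence and across linkers.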
# [2] = target: Gal(b1-4)GlcNAc(b1-3)Gal(b1-4)GlcNAc(b1-3)Gal(b1-4)GlcNAc(b1-3)Gal(b1-4)GlcNAc(b1-2)[Gal(b1-4)GlcNAc(b1-3)Gal(b1-4)GlcNAc(b1-3)Gal(b1-4)GlcNAc(b1-3)Gal(b1-4)GlcNAc(b1-6)]Man(a1-6)[Gal(b1-4)GlcNAc(b1-3)Gal(b1-4)GlcNAc(b1-3)Gal(b1-4)GlcNAc(b1-3)Gal(b1-4)GlcNAc(b1-2)Man(a1-3)]Man(b1-4)GlcNAc(b1-4)[Fuc(a1-6)]GlcNAc
# How it was run: as §1
# [3] = target: Gal(b1-4)GlcNAc(b1-3)Gal(b1-4)GlcNAc(b1-3)Gal(b1-4)GlcNAc(b1-3)Gal(b1-4)GlcNAc(b1-3)Gal(b1-4)GlcNAc(b1-2)Man(a1-3)[Gal(b1-4)GlcNAc(b1-3)Gal(b1-4)GlcNAc(b1-3)Gal(b1-4)GlcNAc(b1-3)Gal(b1-4)GlcNAc(b1-3)Gal(b1-4)GlcNAc(b1-2)Man(a1-6)]Man(b1-4)GlcNAc(b1-4)GlcNAc
# How it was run: as §1
# [4] = target: Gal(b1-4)GlcNAc(b1-3)Gal(b1-4)GlcNAc(b1-3)Gal(b1-4)GlcNAc(b1-3)Gal(b1-4)GlcNAc(b1-3)Gal(b1-4)GlcNAc(b1-2)Man(a1-3)[Gal(b1-4)GlcNAc(b1-3)Gal(b1-4)GlcNAc(b1-3)Gal(b1-4)GlcNAc(b1-3)Gal(b1-4)GlcNAc(b1-3)Gal(b1-4)GlcNAc(b1-2)Man(a1-6)]Man(b1-4)GlcNAc(b1-4)[Fuc(a1-6)]GlcNAc
# How it was run: as §1
# [5] = target: Gal(b1-4)GlcNAc(b1-3)Gal(b1-4)GlcNAc(b1-3)Gal(b1-4)GlcNAc(b1-3)Gal(b1-4)GlcNAc(b1-3)Gal(b1-4)GlcNAc(b1-2)[Gal(b1-4)GlcNAc(b1-3)Gal(b1-4)GlcNAc(b1-3)Gal(b1-4)GlcNAc(b1-3)Gal(b1-4)GlcNAc(b1-3)Gal(b1-4)GlcNAc(b1-6)]Man(a1-6)[Gal(b1-4)GlcNAc(b1-3)Gal(b1-4)GlcNAc(b1-3)Gal(b1-4)GlcNAc(b1-3)Gal(b1-4)GlcNAc(b1-3)Gal(b1-4)GlcNAc(b1-2)Man(a1-3)]Man(b1-4)GlcNAc(b1-4)[Fuc(a1-6)]GlcNAc
# How it was run: as §1
# [6] = target: Gal(b1-4)GlcNAc(b1-3)Gal(b1-4)GlcNAc(b1-3)Gal(b1-4)GlcNAc(b1-3)Gal(b1-4)GlcNAc(b1-3)Gal(b1-4)GlcNAc(b1-3)Gal(b1-4)GlcNAc(b1-2)Man(a1-3)[Gal(b1-4)GlcNAc(b1-3)Gal(b1-4)GlcNAc(b1-3)Gal(b1-4)GlcNAc(b1-3)Gal(b1-4)GlcNAc(b1-3)Gal(b1-4)GlcNAc(b1-3)Gal(b1-4)GlcNAc(b1-2)Man(a1-6)]Man(b1-4)GlcNAc(b1-4)GlcNAc
# How it was run: as §1
# [7] = target: Gal(b1-4)GlcNAc(b1-3)Gal(b1-4)GlcNAc(b1-3)GalNAc
# How it was run: as §1
# [8] = target: Gal(b1-4)GlcNAc(b1-3)Gal(b1-4)GlcNAc(b1-3)[Gal(b1-4)GlcNAc(b1-3)Gal(b1-4)GlcNAc(b1-6)]GalNAc
# How it was run: as §1
# [9] = target: Gal(b1-4)GlcNAc(b1-3)Gal(b1-4)GlcNAc(b1-6)[Gal(b1-3)]GalNAc
# How it was run: as §1
# [10] = target: Gal(b1-4)GlcNAc(b1-3)Gal(b1-4)[Fuc(a1-3)]GlcNAc(b1-3)Gal(b1-4)[Fuc(a1-3)]GlcNAc
# How it was run: as §1
# [11] = target: Gal(b1-4)GlcNAc(b1-3)GalNAc
# How it was run: as §1
# [12] = target: Gal(b1-4)GlcNAc(b1-3)[Fuc(a1-3)GlcNAc(b1-6)]Gal(b1-4)Glc
# How it was run: as §1
# [13] = target: Gal(b1-4)GlcNAc(b1-3)[Gal(b1-4)GlcNAc(b1-6)]Gal(b1-4)GlcNAc
# How it was run: as §1
# [14] = target: Gal(b1-4)GlcNAc(b1-3)[GlcNAc(b1-6)]Gal(b1-4)GlcNAc
# How it was run: as §1
# [15] = target: Gal(b1-4)GlcNAc(b1-6)Gal(b1-4)GlcNAc
# How it was run: as §1
# [16] = target: Gal(b1-4)GlcNAc(b1-6)GalNAc
# How it was run: as §1
# [17] = target: Gal(b1-4)GlcNAc(b1-6)[Gal(b1-3)]GalNAc
# How it was run: as §1
# [18] = target: Gal(b1-4)GlcNAc(b1-6)[Gal(b1-4)GlcNAc(b1-3)]GalNAc
# How it was run: as §1
# Gal(b1-4)GlcNAc6P = target: Gal(b1-4)GlcNAc6P
# How it was run: as §1
# Gal(b1-6)Gal = target: Gal(b1-6)Gal
# How it was run: as §1
# Gal3S(b1-3)GalNAc = target: Gal3S(b1-3)GalNAc
# How it was run: as §1
# Gal3S(b1-3)GlcNAc = target: Gal3S(b1-3)GlcNAc
# How it was run: as §1
# [19] = target: Gal3S(b1-3)[Fuc(a1-4)]GlcNAc
# How it was run: as §1
# Gal3S(b1-4)Glc = target: Gal3S(b1-4)Glc
# How it was run: as §1
# Gal3S(b1-4)Glc6S = target: Gal3S(b1-4)Glc6S
# How it was run: as §1
# Gal3S(b1-4)GlcNAc = target: Gal3S(b1-4)GlcNAc
# How it was run: as §1
# [20] = target: Gal3S(b1-4)[Fuc(a1-3)]Glc6S
# How it was run: as §1
# [21] = target: Gal3S(b1-4)[Fuc(a1-3)]GlcNAc
# How it was run: as §1
# [22] = target: Gal3S(b1-4)[Fuc(a1-3)]GlcNAc6S
# How it was run: as §1
# Gal3S4S(b1-4)GlcNAc = target: Gal3S4S(b1-4)GlcNAc
# How it was run: as §1
# Gal3S6S(b1-4)GlcNAc = target: Gal3S6S(b1-4)GlcNAc
# How it was run: as §1
# Gal3S6S(b1-4)GlcNAc6S = target: Gal3S6S(b1-4)GlcNAc6S
# How it was run: as §1
# Gal4S(b1-4)GlcNAc = target: Gal4S(b1-4)GlcNAc
# How it was run: as §1
# Gal4S6S(b1-4)GlcNAc = target: Gal4S6S(b1-4)GlcNAc
# How it was run: as §1
# Gal6P(b1-4)GlcNAc = target: Gal6P(b1-4)GlcNAc
# How it was run: as §1
# Gal6S(b1-3)GlcNAc = target: Gal6S(b1-3)GlcNAc
# How it was run: as §1
# Gal6S(b1-3)GlcNAc6S = target: Gal6S(b1-3)GlcNAc6S
# How it was run: as §1
# Gal6S(b1-4)Glc = target: Gal6S(b1-4)Glc
# How it was run: as §1
binder,measurement,setting,value
B1,glycan array binding signal (z-score),[1],0.105
same,glycan array binding signal (z-score),[2],0.292
same,glycan array binding signal (z-score),[3],-0.383
same,glycan array binding signal (z-score),[4],-0.006
same,glycan array binding signal (z-score),[5],1.04
same,glycan array binding signal (z-score),[6],1.7
same,glycan array binding signal (z-score),[7],0.101
same,glycan array binding signal (z-score),[8],0.887
same,glycan array binding signal (z-score),[9],0.117
same,glycan array binding signal (z-score),[10],-1.07
same,glycan array binding signal (z-score),[11],-0.658
same,glycan array binding signal (z-score),[12],-0.544
same,glycan array binding signal (z-score),[13],0.204
same,glycan array binding signal (z-score),[14],-0.418
same,glycan array binding signal (z-score),[15],0.177
same,glycan array binding signal (z-score),[16],0.672
same,glycan array binding signal (z-score),[17],0.11
same,glycan array binding signal (z-score),[18],0.036
same,glycan array binding signal (z-score),Gal(b1-4)GlcNAc6P,-0.503
same,glycan array binding signal (z-score),Gal(b1-6)Gal,0.805
same,glycan array binding signal (z-score),Gal3S(b1-3)GalNAc,-0.373
same,glycan array binding signal (z-score),Gal3S(b1-3)GlcNAc,0.601
same,glycan array binding signal (z-score),[19],-0.32
same,glycan array binding signal (z-score),Gal3S(b1-4)Glc,0.331
same,glycan array binding signal (z-score),Gal3S(b1-4)Glc6S,-0.932
same,glycan array binding signal (z-score),Gal3S(b1-4)GlcNAc,0.679
same,glycan array binding signal (z-score),[20],-0.183
same,glycan array binding signal (z-score),[21],-0.324
same,glycan array binding signal (z-score),[22],0.421
same,glycan array binding signal (z-score),Gal3S4S(b1-4)GlcNAc,-0.234
same,glycan array binding signal (z-score),Gal3S6S(b1-4)GlcNAc,0.827
same,glycan array binding signal (z-score),Gal3S6S(b1-4)GlcNAc6S,1.56
same,glycan array binding signal (z-score),Gal4S(b1-4)GlcNAc,1.21
same,glycan array binding signal (z-score),Gal4S6S(b1-4)GlcNAc,-0.6
same,glycan array binding signal (z-score),Gal6P(b1-4)GlcNAc,-0.604
same,glycan array binding signal (z-score),Gal6S(b1-3)GlcNAc,-0.599
same,glycan array binding signal (z-score),Gal6S(b1-3)GlcNAc6S,0.639
same,glycan array binding signal (z-score),Gal6S(b1-4)Glc,0.924

# Retrieved one by one from the list above, two records:
binder,measurement,setting,value
B1,glycan array binding signal (z-score),Gal6S(b1-4)Glc,0.924
same,glycan array binding signal (z-score),Gal3S6S(b1-4)GlcNAc6S,1.56
